Record: PubChem BioAssay AID652272 (Drosophila RNAi Screening Center, 2013)
Assay: 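Genes whose knock-down decreases or increases Hedgehog reporter output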 (primary screen). Cell system: Drosophila clone 8 (Cl8) cells. Reagents: long dsRNA against Drosophila genes. Measured: 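Firefly light from a Hedgehog-responsive ptc promoter reporter and Renilla reference light, both read on a plate reader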. Scale: firefly Hh reporter signal: higher = more ptc reporter light; Renilla reference signal: higher = more Renilla control light. Rule for the call: 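Called a hit if the two-replicate mean z-score lies below -2 or above +3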. Meaning of the calls: active = hit: reporter lowered or raised; inactive = not a hit.
The screen tested about 21,000 reagents; below is a random part of those with a known target gene and a result. In the full data, 503 (2.4%) are marked active. 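Raw plate light values, not normalised; calls rest on replicate z-scores that were not deposited; hits include reporter decreases as well as increases.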 Unmarked entries are inactive. The record does not give: the amount of reagent, the time to read-out.

target | PubChem SID | firefly Hh reporter signal, replicate 1 | firefly Hh reporter signal, replicate 2 | firefly Hh reporter signal, replicate 3 | Renilla reference signal, replicate 1 | Renilla reference signal, replicate 2
CG8372 | SID104182878 | 82464 | 56416 | – | 4179 | 2673
CG10214 | SID104194005 | 1.22e5 | 63292 | – | 4551 | 2360
CG5116 | SID104195512 | 4.82e5 | 78434 | – | 1953 | 1953
cta | SID104183561 | 1.30e5 | 53570 | – | 4360 | 1906
Ras85D | SID104196606 | 80140 | 96599 | – | 2480 | 2422
Gat | SID104196936 | 53792 | 1.62e5 | – | 1505 | 6136
CG33521 | SID104196971 | 4.60e5 | 1.83e5 | – | 22682 | 4117
CG33521 | SID104197003 | 97696 | 2.27e5 | – | 2528 | 8407
l(3)80Fj | SID104200778 | 5.20e5 | 2.42e5 | – | 30887 | 5184
l(3)80Fj | SID104200781 | 62428 | 4.09e5 | – | 1003 | 13152

Not a retest: entries from further up.
target | PubChem SID | firefly Hh reporter signal, replicate 1 | firefly Hh reporter signal, replicate 2 | firefly Hh reporter signal, replicate 3 | Renilla reference signal, replicate 1 | Renilla reference signal, replicate 2
CG8372 | SID104182878 | 82464 | 56416 | – | 4179 | 2673
CG10214 | SID104194005 | 1.22e5 | 63292 | – | 4551 | 2360
CG5116 | SID104195512 | 4.82e5 | 78434 | – | 1953 | 1953

The listing continues.
target | PubChem SID | firefly Hh reporter signal, replicate 1 | firefly Hh reporter signal, replicate 2 | firefly Hh reporter signal, replicate 3 | Renilla reference signal, replicate 1 | Renilla reference signal, replicate 2
CG15358 | SID104180180 | 97560 | 1.09e5 | – | 2304 | 2643
GlcT | SID104184317 | 45216 (active) | 43890 | – | 2880 | 2347
CG15071 | SID104186296 | 86055 | 57602 | – | 2300 | 4096
CG18628 | SID104190120 | 96582 | 71184 | 90825 | 8433 | 7528
Art6 | SID104196375 | 65904 | 81664 | – | 2652 | 1994
mtd | SID104191923 | 1.62e5 | 1.18e5 | – | 6000 | 4969
mtd | SID104192172 | 99195 | 1.18e5 | – | 4857 | 4859
mtd | SID104192173 | 93824 | 1.80e5 | – | 3076 | 4832
CG7860 | SID104199852 | 82720 | 79648 | – | 2205 | 1673
rad50 | SID104184315 | 53521 | 53573 | – | 2295 | 2112
Coa7 | SID104200759 | 1.37e5 | 2.07e5 | – | 5333 | 9484
Mps1 | SID104196065 | 1.02e5 | 1.18e5 | – | 4629 | 4345
CG34236 | SID104185227 | 1.26e5 | 2.43e5 | – | 3949 | 11117
